Values quoted from earlier work in paper PMC7947795, “Rapamycin-Loaded Lipid Nanocapsules Induce Selective Inhibition of the mTORC1-Signaling Pathway in Glioblastoma Cells” (Frontiers in Bioengineering and Biotechnology, 2021).

Parameters: method as in Simamora et al., 2001
Conditions: ref Simamora et al., 2001; cited from earlier work

## CO[C@H]1C[C@@H]2CC[C@@H](C)[C@@](O)(O2)C(=O)C(=O)N2CCCC[C@H]2C(=O)O[C@H]([C@H](C)C[C@@H]2CC[C@@H](O)[C@H](OC)C2)CC(=O)[C@H](C)/C=C(\C)[C@@H](O)[C@@H](OC)C(=O)[C@H](C)C[C@H](C)/C=C/C=C/C=C/1C [Rapamycin]
  solubility in water: ca. 2.6 μg/mL
